Experimental data: PubChem BioAssay AID1224826 (NIAID, 2016)
The whole screen tested about 17,000 reagents; shown is a part drawn at random. In the full data, about 1,110 (6.6%) got an active call. 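Active means lowered or raised reporter signal; replicate intensities are raw and not normalised per plate.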 Unmarked entries are inactive. Some reagents were tested in more than one well and are listed for each.

Test: 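Genes that change LPS-induced Tnf promoter activity in mouse macrophages when knocked down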 (primary screen)
Cell system: RAW264.7 G9 macrophages from mouse bearing reporters for p65 (GFP) and the Tnf promoter (mCherry)
Reagents: siRNA pool against mouse genes, 100 nM
Duration: 16 h of LPS stimulation, after 2 days of siRNA transfection
Treatment: bacterial lipopolysaccharide (Salmonella minnesota R595), 10 ng/ml
Detection: 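Imaged Tnf reporter mCherry in nuclei, minus background, normalised per plate to the median and expressed as robust z-scores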
Scale: Tnf reporter robust z-score: higher = stronger Tnf promoter reporter signal after LPS; Tnf reporter intensity: higher = stronger Tnf promoter reporter signal
Call rule: 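a well counts as active at a score of -1.3 or below (Tlr4 knock-down control median) or above 3 (raised signal); controls and wells holding fewer than 50 cells are excluded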
Meaning of the calls: active = Tnf reporter clearly lowered or raised; inactive = no clear change in Tnf reporter

Target gene | Tnf reporter robust z-score | fewer than 50 cells in well | Tnf reporter intensity, replicate 1 | Tnf reporter intensity, replicate 2
Tnfrsf17 | -1.26 | enough cells in well | 137 | 49
Siglecl2 | – | fewer than 50 cells per well; well left out of calls | 76.1 | 35.1
Tgs1 | -1.61 (active) | enough cells in well | 138 | 78.9
Pla2g1b | -0.32 | enough cells in well | 226 | 166
Sult1c2 | 1.17 | enough cells in well | 150 | 130
Metap2 | 0.82 | enough cells in well | 286 | 150
Hsd17b3 | -0.2 | enough cells in well | 237 | 162
Uaca | 0.14 | enough cells in well | 124 | 118
Or4k44 | -0.44 | enough cells in well | 148 | 107
Osbpl3 | -0.35 | enough cells in well | 119 | 128
Nhsl1 | -1.09 | enough cells in well | 125 | 103
4921511C20Rik | 0.65 | enough cells in well | 207 | 84.1
Rfxap | -0.88 | enough cells in well | 211 | 148
Atp2b2 | -0.56 | enough cells in well | 125 | 147
Ptpn22 | 0.52 | enough cells in well | 210 | 294
Pnpla7 | -0.3 | enough cells in well | 172 | 202
Gpr20 | -0.61 | enough cells in well | 127 | 312
Rufy2 | -0.02 | enough cells in well | 114 | 139
Or8j3b | 0.93 | enough cells in well | 270 | 179
Frat1 | 0.16 | enough cells in well | 273 | 246
Ppp1r12a | 0.13 | enough cells in well | 225 | 228

The list goes on; the last 4 above are carried over.
Target gene | Tnf reporter robust z-score | fewer than 50 cells in well | Tnf reporter intensity, replicate 1 | Tnf reporter intensity, replicate 2
Rufy2 | -0.02 | enough cells in well | 114 | 139
Or8j3b | 0.93 | enough cells in well | 270 | 179
Frat1 | 0.16 | enough cells in well | 273 | 246
Ppp1r12a | 0.13 | enough cells in well | 225 | 228
Pdia4 | -0.95 | enough cells in well | 94.5 | 124
Vav1 | -0.06 | enough cells in well | 226 | 224
Neurl3 | -0.76 | enough cells in well | 155 | 97.6
Scube2 | -0.1 | enough cells in well | 237 | 236
Iyd | -0.19 | enough cells in well | 189 | 87.7
Pomgnt1 | -0.75 | enough cells in well | 203 | 49
Mef2b | -1.25 | enough cells in well | 151 | 119
Vmn2r-ps105 | -1.37 (active) | enough cells in well | 82.1 | 84.2
Ggt5 | -0.14 | enough cells in well | 237 | 129
Akap8 | 1.2 | enough cells in well | 293 | 207
Ilkap | – | fewer than 50 cells per well; well left out of calls | 171 | 85.2
Ilkap | -1.26 | enough cells in well | 215 | 26.5
Ric3 | 0.6 | enough cells in well | 227 | 137
Slc5a2 | -0.01 | enough cells in well | 179 | 167
Abi3bp | 1.98 | enough cells in well | 329 | 257
Pwp1 | 2.04 | enough cells in well | 255 | 107
Nppc | 0.42 | enough cells in well | 219 | 168
Hmbs | -0.92 | enough cells in well | 201 | 129
Kyat3 | -1.11 | enough cells in well | 132 | 126
